Reference: PubChem BioAssay AID2685 (National Center for Advancing Translational Sciences (NCATS), 2010)
The whole screen tested about 320,000 compounds, of which about 2,100 (0.66%) were called active. The shares of active, inactive and inconclusive entries below differ from those in the screen. The call rests on the fitted dose curve; in most records, active means well fitted inhibition curve with a large enough effect in the signal ratio, with a control signal flat (not every such curve was filed as active); inconclusive means small, poorly fitted or top-dose-only effect, or effect the other way, or a change in a side signal; inactive means flat fitted curve, though single readings scatter; the % refers to the signal ratio. Potencies beside an inconclusive call are fits to weak or partial responses and may not hold up.

experiment: qHTS Assay for Lipid Storage Modulators in Drosophila S3 Cells; details: BODIPY lipid droplet fluorescence, 18-24 h, cells fed with added oleic acid; lipid storage change, negative = inhibition: at 46.1 µM (top of the series) unless noted
In short: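 Drosophila S3 cells got compounds at several concentrations plus oleic acid (400 uM solution). Laser-scanning cytometry with 488 nm excitation read lipid droplets at 500-530 nm and cells at 575-640 nm. Percent activity was relative to 20 uM Triacsin C.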
On the % scale 0 is the no-effect control and ±100 the full control effect; potency means the concentration at half of the fitted maximal effect.

Lipid storage change, negative = inhibition, inactive:
CC1(C)CC(NC(=O)c2cc(S(=O)(=O)N3CCOCC3)c(Cl)cc2Cl)CC(C)(C)N1
O=c1[nH]c2ccccc2nc1C(Cl)c1ccccc1 (stereo unspecified)
C/C(CC(=O)Nc1ccc2c(c1)OCCO2)=N\NC(=O)c1ccccc1F

Lipid storage change, negative = inhibition, inconclusive:
CCOC(=O)C1=C(C)N=c2s/c(=C\c3ccc(OCC(=O)O)cc3)c(=O)n2C1c1ccccc1OC (stereo unspecified) -8.76%
Cc1cc(C(=O)NC(C)c2ccccc2)c2cc(F)ccc2n1 (stereo unspecified) 19%
CC(C)n1nnnc1SCC(=O)Nc1ccc2c(c1)OCCO2 18.3%
COc1ccc(C(CNC(=O)c2ccc(Br)o2)N2CCN(C)CC2)cc1 (stereo unspecified) -4.52%
CCc1nnc(NC(=O)CCC(=O)N2CCN(CCOc3ccc(C)cc3)CC2)s1 13.4%
C/C(CC(=O)Nc1cccc(Cl)c1Cl)=N\NC(=O)c1ccccc1C -2.62%
Cc1ccc(-n2nc3c(c2NC(=O)C(C)(C)C)CS(=O)(=O)C3)cc1 98.1%
CC(C)N(Cc1ccccc1)C(=O)c1cccs1 -27.8%
Cc1ccc(S(=O)(=O)N(C)C)cc1NC(=O)C1CCCN(C(=O)c2ccc(Cl)cc2)C1 (stereo unspecified) 13.4%
Cc1cccc(OCC(=O)O/N=C(\N)Cc2ccc([N+](=O)[O-])cc2)c1 9.96%
COc1ccc(CNS(=O)(=O)NCc2ccc(OC)c(OC)c2)cc1 12.5%
CC1CC(NS(=O)(=O)c2cc3c4c(c2)CCN4C(=O)CC3)CC(C)(C)C1 (stereo unspecified) -9.14%
CCCSc1nnc(NC(=O)c2sc3nc(-c4cccs4)ccc3c2N)s1 -11.8%
COc1ccc(NC(=O)CCCc2ccccc2)cc1OC 214%
Cc1ccc2c3c([nH]c2c1)C(=O)CC(C)(C)S3 27%
CCC(C)c1ccc(S(=O)(=O)N2CCN(C(C)CC(=O)O)CC2)cc1 (stereo unspecified) -65.4%
O=C(/C=C/c1ccccc1Cl)NCCCn1ccnc1 -1.91%
O=C(O)c1cc([N+](=O)[O-])c(Nc2cccc3ccccc23)c([N+](=O)[O-])c1 113%
NC(=O)NCC12CC3CC(CC(C3)C1)C2 -10.5%
CN(C)S(=O)(=O)c1cccc(COc2cccnc2[N+](=O)[O-])c1 -100%
Cc1cccc2cc(C#N)c(NCCNC(=S)NCCCN3CCOCC3)nc12 5.51%
Cc1ccc(S(=O)(=O)CCc2ccncc2)cc1 -10.4%
CCc1ccc(CN(C)C(=O)c2ccc3c(c2)OCCO3)cc1 -28.6%
O=C(O)CC(c1ccccc1)n1cccc1 (stereo unspecified) -35.2% [at 0.0737 µM]
N#CC1(NC(=O)COC(=O)c2cc([N+](=O)[O-])ccc2N2CCCC2)CCCCC1
COc1cccc(C(=O)NCC(=O)N/N=C(\C)Cc2ccccc2)c1 114%
COc1ccc(Cn2cnc3c(N)c(C)c(C)cc32)cc1 5.85%
Cc1ccc(NC(=O)C2CCCN(S(=O)(=O)c3c(C)noc3C)C2)nc1 (stereo unspecified) 10.1%
O=C(Oc1c(Br)cc(Br)c2cccnc12)N1CCCCC1 3.74%
COc1ccc(S(=O)(=O)NCc2ccc(C(=O)NCCCN3CC(C)CC(C)C3)cc2)cc1 (stereo unspecified) 51.9%
CC(C)N1C(=O)C2ON(c3ccccc3)C(c3cccs3)C2C1=O (stereo unspecified) -1.17%
O=C(c1ccccc1OCc1ccccc1Br)N1CCN(c2ncccn2)CC1 -1.42%
Cn1cc(C(=O)Nc2ccc3c(c2)CCC3)cn1 19.1%
C#CCn1c(=NC(=O)c2sc3ccccc3c2Cl)sc2cc(S(N)(=O)=O)ccc21 21%
CC12CN3CC(C)(CN(C1)C3c1ccc(Cl)cc1Cl)C2=O (stereo unspecified) 0.403%
COc1ccccc1Cn1c(=S)[nH]c2ccc(Br)cc2c1=O -36.5%
CCCCc1c(C)nc(N)[nH]c1=O -68% [at 0.0737 µM]
O=c1cc(COc2ccc(Cl)c(Cl)c2)nc2sccn12 1.77%
Cc1ccc(NS(=O)(=O)c2ccc3c(c2)NC(=O)CC(=O)N3)cc1C -22.9%
O=C1c2cccnc2C(=O)N1Cc1ccco1 5.11%
N#CCSc1nnc2sc3ccccc3n12 17.5% [at 9.22 µM]
COc1ccccc1N1CCN(CCC(=O)Nc2ccc(F)cc2)CC1 13.7%
CC(=O)Nc1ccc(-c2csc(NC(=O)Nc3ccccc3)n2)cc1 9.2%
COc1ccc(C(=O)NC(=O)Nc2cc(C)ccn2)cc1 -15.5%
N#Cc1cccnc1N1CCN(C(=O)c2ccccc2)CC1 11%
COc1ccccc1N1CC(C(=O)OCC(=O)c2ccc(F)cc2)CC1=O (stereo unspecified) 1.24%

Potency, inconclusive:
Cc1ccc(/C=C/C(=O)OCn2nnc3ccccc3c2=O)o1 10.3 µM [activator, partial curve, poor fit]
CCOc1ccc(NC(=O)CSc2ccc(-c3ccco3)nn2)cc1 20.6 µM [activator, single point]
Cc1cc(C(=O)CN2C(=O)C(=O)N(Cc3ccccc3)C2=O)c(C)n1-c1ccccc1F 0.082 µM [activator, partial curve, poor fit]
COC(OC)C1Nc2ccccc2C(=O)N1c1ccc(F)cc1 (stereo unspecified) 0.0046 µM [activator, full curve, poor fit]
CCc1cccc(NC(=O)CCS(=O)(=O)c2ccc(Br)cc2)c1 29.1 µM [falling, single point]
CCn1c(COc2ccc(Cl)cc2)nnc1SCc1nc2ccccc2[nH]1 6.51 µM [activator, partial curve, poor fit]
CCc1ccc(C(CNc2nc(C(F)(F)F)nc3ccccc23)N(C)C)cc1 (stereo unspecified) 29.1 µM [activator, single point]
CCOC(=O)C1CCN(C(=O)c2cccnc2)CC1 0.146 µM [falling, full curve, poor fit]
Cc1nn(C)c(Cl)c1C(=O)NCC(=O)O 29.1 µM [falling, single point]
COc1cccc(C2NC(=O)c3sc(=S)n(-c4ccccc4)c3N2)c1 (stereo unspecified) 0.0073 µM [falling, full curve, poor fit]
O=C(NC1CCCCC1)C1CCN(C(=O)NCc2ccccc2)CC1 0.0052 µM [falling, full curve, poor fit]
CCC(C(=O)OCC(=O)Nc1ccc(OC)cc1OC)c1ccccc1 (stereo unspecified) 29.1 µM [rising, single point]
CCOC(=O)COC(=O)c1ccc(O)cc1 0.731 µM [falling, full curve, poor fit]
CCN(CC)S(=O)(=O)c1cccc(C(=O)OC2CC(C)OC2=O)c1 (stereo unspecified) 16.4 µM [activator, partial curve, poor fit]
Cc1ccc(N(C(C)C(=O)N2CCN(Cc3ccccc3)CC2)S(C)(=O)=O)cc1 (stereo unspecified) 6.51 µM [falling, single point]
O=C(NCCCNc1ccc(C(F)(F)F)cc1[N+](=O)[O-])c1ccc(Cl)cc1 5.17 µM [falling, single point]
COc1ccc(S(=O)(=O)N2CCCCC2)cc1NC(=O)c1cc(C)on1 0.58 µM [rising, full curve]
COc1ccc(-c2cc3c(=O)n(CC(=O)Nc4cccc(Cl)c4)ncn3n2)cc1 18.4 µM [activator, single point]
O=C(CN1C(=O)NC(Cc2c[nH]c3ccccc23)C1=O)NCCc1ccc(F)cc1 (stereo unspecified) 7.31 µM [falling, partial curve]
Cc1c(Cl)ccc2c(C(=O)NC(C)c3ccncc3)cc(-c3ccncc3)nc12 (stereo unspecified) 6.51 µM [falling, partial curve, poor fit]
O=C(NCCC(=O)N1CCNC1=O)OCc1ccccc1 29.1 µM [falling, single point]
CN(C)CCN(C(=O)c1ccc2c(c1)CCCC2)c1nc2cc3c(cc2s1)OCCO3 29.1 µM [activator, single point]
CC1(C)CC(NS(=O)(=O)c2ccc(F)cc2)CC(C)(C)N1 0.58 µM [falling, single point]
CCCCN1CC(O)=C(c2nc(-c3ccc(Cl)cc3)cs2)C1=N 1.64 µM [activator, full curve]
CCN(C(=O)CSc1nc(N)cc(=O)[nH]1)c1c(N)n(Cc2ccccc2)c(=O)[nH]c1=O 7.31 µM [activator, partial curve, poor fit]
O=C(OCC(=O)N1CCN(c2ccccc2)CC1)C1=COCCO1 29.1 µM [falling, single point]
Cc1ccc(S(=O)(=O)c2nc(S(C)(=O)=O)sc2N2CCCCC2C)cc1 (stereo unspecified) 18.4 µM [falling, single point]
